Results are given in words; binding and its absence hold for the method and conditions named. Some binding calls cover weakened binding; strength is not graded here. Sequences can lack the tags named with a protein.
Target: T1, His-PPP1R2P3 (human) (UniProt Q6NXS1)
T1 sequence: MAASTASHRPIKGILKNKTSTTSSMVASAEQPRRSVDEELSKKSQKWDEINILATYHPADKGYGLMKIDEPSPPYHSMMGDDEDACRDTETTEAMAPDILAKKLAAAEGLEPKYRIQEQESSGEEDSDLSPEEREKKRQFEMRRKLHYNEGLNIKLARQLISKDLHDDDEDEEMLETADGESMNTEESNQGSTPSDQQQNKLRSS
Assay: far-Western, overlay or dot blot; 0.3 ug commercial PPP1R2 or His-PPP1R2P3 resolved by SDS-PAGE, transferred to nitrocellulose, overlaid with purified PPP1CC1 or PPP1CC2 (25 pmol/mL) in Tris buffered saline with Tween-20/BSA; detected with CBC3C or CBC502 antibodies; both purified

Protein sequences, listed by entry. Tags and fused reporters are not part of them. Lines headed by an entry give the natural chain unless they say otherwise; changes in a name come on top. Chains listed by the source or under a name are the forms on record and can include a tag or linker.
UniProt P36873: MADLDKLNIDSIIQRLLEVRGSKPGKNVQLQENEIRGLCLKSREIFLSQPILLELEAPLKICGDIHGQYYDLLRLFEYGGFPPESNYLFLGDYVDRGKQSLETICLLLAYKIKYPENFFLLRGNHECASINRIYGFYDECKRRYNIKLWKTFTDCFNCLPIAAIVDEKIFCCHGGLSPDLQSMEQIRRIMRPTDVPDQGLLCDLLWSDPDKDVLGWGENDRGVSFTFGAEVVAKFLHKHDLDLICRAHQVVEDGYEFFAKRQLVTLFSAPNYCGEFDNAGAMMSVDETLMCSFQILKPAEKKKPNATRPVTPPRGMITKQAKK
purified recombinant PPP1CC2 (P36873-2, form named): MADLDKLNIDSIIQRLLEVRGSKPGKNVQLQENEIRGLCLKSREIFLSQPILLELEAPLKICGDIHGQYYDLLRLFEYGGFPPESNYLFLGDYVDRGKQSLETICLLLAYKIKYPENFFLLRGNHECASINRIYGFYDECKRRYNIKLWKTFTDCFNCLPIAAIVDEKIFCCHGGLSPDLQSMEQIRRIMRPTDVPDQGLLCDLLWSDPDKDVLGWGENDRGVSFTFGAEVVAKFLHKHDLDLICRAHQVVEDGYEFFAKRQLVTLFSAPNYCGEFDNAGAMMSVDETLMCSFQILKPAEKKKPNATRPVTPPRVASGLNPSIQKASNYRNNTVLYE

binding	Substance
binds	purified recombinant PPP1CC2 (from UniProt P36873-2 1-337) (enzyme)
binds	purified recombinant PPP1CC1 (from UniProt P36873 1-323) (enzyme)

Source: PMC3606321
